Here are results for 40 targets from the supplement of paper PMC7666118.

By UniProt entry, the sequences of proteins in these tests, tags left out. Where a name states a change or a piece, a line headed by the entry shows the natural chain unless it says otherwise.
UniProt Q9UHI6: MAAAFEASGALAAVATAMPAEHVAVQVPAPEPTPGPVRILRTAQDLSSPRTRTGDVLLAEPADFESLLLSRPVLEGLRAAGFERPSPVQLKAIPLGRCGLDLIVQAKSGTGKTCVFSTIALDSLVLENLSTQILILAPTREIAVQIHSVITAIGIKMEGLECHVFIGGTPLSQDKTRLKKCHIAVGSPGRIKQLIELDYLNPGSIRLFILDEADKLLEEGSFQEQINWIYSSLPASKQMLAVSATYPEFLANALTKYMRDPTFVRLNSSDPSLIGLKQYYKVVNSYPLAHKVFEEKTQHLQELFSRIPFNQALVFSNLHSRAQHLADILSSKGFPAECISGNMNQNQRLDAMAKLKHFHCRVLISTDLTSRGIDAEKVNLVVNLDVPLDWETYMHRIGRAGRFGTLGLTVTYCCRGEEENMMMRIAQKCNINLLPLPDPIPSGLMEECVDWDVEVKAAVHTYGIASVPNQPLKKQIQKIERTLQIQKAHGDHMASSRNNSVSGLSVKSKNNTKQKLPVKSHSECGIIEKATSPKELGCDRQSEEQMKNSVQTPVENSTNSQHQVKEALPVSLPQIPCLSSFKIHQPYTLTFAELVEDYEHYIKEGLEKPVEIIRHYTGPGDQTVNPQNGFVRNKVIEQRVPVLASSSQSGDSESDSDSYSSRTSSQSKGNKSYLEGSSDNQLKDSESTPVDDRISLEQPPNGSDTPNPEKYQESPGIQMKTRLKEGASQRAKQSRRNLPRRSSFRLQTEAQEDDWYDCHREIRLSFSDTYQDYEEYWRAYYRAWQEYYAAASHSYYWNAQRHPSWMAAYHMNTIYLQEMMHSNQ
UniProt Q9NVM6: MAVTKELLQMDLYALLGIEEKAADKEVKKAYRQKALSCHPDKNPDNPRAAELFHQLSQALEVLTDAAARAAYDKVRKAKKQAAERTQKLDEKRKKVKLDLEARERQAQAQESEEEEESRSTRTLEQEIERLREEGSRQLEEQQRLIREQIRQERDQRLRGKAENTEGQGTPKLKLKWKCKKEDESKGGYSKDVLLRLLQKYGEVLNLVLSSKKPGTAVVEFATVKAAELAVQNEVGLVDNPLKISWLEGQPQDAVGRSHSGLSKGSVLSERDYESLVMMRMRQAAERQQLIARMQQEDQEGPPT
UniProt Q92620: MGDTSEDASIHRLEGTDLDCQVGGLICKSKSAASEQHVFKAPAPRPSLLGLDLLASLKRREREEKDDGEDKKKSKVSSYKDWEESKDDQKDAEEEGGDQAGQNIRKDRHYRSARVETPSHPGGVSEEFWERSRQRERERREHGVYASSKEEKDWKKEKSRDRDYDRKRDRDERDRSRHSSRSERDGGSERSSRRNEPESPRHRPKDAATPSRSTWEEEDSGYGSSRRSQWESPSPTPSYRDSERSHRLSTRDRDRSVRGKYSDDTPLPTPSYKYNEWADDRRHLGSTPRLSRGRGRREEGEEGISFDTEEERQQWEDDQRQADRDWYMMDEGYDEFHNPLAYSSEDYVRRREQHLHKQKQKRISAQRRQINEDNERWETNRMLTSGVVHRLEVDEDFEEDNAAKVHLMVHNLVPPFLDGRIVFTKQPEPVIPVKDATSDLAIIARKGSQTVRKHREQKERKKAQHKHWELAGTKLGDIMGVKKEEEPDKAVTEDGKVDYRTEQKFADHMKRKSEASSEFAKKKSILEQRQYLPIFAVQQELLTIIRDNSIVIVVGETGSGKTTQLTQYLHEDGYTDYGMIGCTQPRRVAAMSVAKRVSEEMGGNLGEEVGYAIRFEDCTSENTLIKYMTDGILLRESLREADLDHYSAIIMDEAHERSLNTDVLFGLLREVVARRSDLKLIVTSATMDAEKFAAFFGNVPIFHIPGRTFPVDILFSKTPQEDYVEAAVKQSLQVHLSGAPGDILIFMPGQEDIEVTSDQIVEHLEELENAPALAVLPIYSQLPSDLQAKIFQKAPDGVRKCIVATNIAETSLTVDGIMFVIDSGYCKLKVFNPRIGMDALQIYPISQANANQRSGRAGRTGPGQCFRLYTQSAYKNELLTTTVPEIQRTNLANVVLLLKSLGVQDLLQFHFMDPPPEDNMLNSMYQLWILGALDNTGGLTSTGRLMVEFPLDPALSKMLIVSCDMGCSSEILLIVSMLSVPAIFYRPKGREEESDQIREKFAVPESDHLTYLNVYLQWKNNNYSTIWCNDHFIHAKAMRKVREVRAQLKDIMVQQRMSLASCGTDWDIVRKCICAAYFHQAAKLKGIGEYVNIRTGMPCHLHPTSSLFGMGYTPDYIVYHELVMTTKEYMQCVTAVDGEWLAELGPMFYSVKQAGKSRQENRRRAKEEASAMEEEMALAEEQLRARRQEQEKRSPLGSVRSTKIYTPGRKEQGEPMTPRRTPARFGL
UniProt P29692: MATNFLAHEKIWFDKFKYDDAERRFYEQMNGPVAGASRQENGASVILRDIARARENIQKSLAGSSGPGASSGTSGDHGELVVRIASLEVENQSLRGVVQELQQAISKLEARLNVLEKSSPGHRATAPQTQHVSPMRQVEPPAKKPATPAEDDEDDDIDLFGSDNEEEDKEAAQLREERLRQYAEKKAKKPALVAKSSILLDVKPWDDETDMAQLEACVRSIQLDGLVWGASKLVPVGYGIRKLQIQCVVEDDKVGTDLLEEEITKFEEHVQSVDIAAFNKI
UniProt Q9BVC3, whole entry: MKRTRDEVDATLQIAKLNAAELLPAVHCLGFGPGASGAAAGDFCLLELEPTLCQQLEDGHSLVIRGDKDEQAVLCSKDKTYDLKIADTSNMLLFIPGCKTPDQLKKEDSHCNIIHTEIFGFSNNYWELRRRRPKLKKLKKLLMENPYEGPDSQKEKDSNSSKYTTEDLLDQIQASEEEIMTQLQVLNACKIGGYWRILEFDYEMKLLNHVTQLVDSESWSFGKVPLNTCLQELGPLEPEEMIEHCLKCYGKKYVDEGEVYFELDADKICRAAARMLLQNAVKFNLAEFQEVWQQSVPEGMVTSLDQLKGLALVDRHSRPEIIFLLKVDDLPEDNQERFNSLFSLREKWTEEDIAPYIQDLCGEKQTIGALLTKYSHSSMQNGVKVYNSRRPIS
UniProt O43237, whole entry: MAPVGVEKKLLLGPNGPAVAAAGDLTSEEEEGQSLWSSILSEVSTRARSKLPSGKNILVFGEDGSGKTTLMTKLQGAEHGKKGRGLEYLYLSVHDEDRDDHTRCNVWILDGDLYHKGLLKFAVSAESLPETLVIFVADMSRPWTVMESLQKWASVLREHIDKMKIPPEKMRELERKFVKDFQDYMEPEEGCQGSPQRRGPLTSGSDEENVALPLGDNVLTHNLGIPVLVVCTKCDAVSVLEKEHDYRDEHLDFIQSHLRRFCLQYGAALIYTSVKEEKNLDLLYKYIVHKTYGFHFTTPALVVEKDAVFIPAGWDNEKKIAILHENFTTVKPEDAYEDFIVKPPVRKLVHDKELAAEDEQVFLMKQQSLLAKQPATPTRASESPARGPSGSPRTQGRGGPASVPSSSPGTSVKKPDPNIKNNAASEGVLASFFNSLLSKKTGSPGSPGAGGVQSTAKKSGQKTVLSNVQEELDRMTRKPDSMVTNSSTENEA
UniProt Q92841: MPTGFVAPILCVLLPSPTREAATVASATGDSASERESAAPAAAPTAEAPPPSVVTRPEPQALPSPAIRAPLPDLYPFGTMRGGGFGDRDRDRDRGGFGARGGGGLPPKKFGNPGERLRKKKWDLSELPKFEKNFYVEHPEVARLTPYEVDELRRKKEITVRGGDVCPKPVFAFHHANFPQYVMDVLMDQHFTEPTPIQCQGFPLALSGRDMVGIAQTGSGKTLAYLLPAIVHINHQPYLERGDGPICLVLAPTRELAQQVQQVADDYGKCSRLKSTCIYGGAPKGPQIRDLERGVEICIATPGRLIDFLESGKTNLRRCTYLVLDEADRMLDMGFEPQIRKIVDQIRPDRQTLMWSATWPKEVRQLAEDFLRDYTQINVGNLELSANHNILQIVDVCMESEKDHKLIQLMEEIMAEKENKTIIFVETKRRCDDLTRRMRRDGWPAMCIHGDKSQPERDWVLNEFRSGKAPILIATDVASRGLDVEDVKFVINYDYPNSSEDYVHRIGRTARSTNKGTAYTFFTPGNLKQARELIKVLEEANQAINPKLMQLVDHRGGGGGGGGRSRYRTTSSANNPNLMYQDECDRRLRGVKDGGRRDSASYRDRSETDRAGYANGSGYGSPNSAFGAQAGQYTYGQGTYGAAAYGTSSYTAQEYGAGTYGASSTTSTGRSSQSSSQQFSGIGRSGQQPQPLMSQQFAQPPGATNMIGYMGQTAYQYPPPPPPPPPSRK
UniProt P30046: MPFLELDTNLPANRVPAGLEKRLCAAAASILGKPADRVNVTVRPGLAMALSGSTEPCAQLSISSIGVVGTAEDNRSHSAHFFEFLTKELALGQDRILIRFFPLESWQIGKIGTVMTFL
UniProt P55039: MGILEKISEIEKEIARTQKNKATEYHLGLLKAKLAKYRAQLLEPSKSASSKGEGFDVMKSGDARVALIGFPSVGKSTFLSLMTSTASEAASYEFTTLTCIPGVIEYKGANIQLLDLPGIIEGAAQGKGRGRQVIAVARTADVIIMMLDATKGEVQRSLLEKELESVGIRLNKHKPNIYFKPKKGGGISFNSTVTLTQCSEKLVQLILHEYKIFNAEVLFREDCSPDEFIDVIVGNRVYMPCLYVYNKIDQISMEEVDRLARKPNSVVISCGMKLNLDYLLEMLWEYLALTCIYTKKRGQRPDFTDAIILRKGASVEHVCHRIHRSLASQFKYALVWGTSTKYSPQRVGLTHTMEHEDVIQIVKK
UniProt Q9NQC7: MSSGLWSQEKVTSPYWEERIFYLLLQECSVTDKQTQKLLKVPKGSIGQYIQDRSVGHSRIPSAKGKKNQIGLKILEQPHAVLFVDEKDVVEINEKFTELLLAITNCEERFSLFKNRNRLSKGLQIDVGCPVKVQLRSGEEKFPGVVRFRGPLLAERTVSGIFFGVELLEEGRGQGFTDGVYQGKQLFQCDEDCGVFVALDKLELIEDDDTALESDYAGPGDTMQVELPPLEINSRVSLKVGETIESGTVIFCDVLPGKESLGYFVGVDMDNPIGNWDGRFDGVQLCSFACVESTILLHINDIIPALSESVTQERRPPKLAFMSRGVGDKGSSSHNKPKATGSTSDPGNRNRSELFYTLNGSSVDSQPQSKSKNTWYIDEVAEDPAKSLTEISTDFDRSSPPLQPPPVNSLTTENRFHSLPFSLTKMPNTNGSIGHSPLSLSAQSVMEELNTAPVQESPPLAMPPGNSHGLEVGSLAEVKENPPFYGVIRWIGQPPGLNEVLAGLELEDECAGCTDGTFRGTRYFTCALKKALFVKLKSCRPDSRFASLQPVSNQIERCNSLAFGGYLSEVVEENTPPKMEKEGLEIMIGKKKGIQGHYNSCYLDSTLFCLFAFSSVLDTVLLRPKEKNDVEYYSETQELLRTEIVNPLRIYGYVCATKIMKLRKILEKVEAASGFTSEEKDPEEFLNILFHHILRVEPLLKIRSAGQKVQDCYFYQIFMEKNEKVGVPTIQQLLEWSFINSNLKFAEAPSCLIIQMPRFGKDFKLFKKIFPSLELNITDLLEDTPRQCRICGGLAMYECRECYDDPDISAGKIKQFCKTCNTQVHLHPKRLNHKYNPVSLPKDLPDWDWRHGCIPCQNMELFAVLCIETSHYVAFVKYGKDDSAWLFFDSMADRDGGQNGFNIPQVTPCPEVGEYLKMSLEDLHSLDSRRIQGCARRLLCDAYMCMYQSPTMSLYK
UniProt P35659: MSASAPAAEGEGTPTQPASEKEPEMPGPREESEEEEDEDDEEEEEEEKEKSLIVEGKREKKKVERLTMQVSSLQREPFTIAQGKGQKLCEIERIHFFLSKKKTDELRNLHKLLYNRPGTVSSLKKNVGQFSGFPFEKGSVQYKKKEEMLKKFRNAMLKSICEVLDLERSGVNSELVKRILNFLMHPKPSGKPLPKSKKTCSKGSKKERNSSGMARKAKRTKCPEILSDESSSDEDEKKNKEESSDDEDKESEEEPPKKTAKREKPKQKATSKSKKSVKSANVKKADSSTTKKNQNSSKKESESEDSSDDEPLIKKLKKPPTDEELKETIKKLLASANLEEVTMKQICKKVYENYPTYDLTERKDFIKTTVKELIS

The list shows a part of the results.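 The calls were made as follows: active = dose-dependent thermal stabilisation significant by F-test of dose-response against flat model at 10% FDR; inactive = not significant.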

Compound in this assay: Nc1nc2c(ncn2[C@@H]2O[C@H](COP(=O)(O)OP(=O)(O)OP(=O)(O)O)[C@@H](O)[C@H]2O)c(=O)[nH]1
Description: dose-dependent thermal stabilisation call (2D-TPP, DLPTP, 10% FDR) (binary (1 = stabilised)); higher = stabilised by the compound. As to conditions: system: Jurkat gel-filtered lysate; concentration range 1-500 µM. As for the experimental part:
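2D thermal proteome profiling in gel-filtered Jurkat E6.1 lysate (2 mg/ml) treated with NaGTP (0, 1, 10, 100, 500 uM) for 10 min at room temperature, then heated 3 min at one of 12 temperatures (42-63.9 C). Soluble protein was quantified by TMT10 MS. The value is the DLPTP call of the paper: dose-dependent thermal stabilisation over all temperatures at 10% FDR (F-test of a dose-response against a flat model); one experiment, one call per tested protein.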
Regarding CSK (UniProt P41240), the “dose-dependent thermal stabilisation call” value is inactive: 0.
Turning to CSTF2 (UniProt P33240), the “dose-dependent thermal stabilisation call” value is inactive: 0.
On to DPH6 (UniProt Q7L8W6), for which the “dose-dependent thermal stabilisation call” value was inactive: 0.
For the target CWF19L1 (UniProt Q69YN2), the “dose-dependent thermal stabilisation call” value was inactive: 0.
For the target DDX20 (UniProt Q9UHI6), the “dose-dependent thermal stabilisation call” value was active: 1.
For the target DGKZ (UniProt Q13574), the “dose-dependent thermal stabilisation call” value is active: 1.
As to DNAJC17 (UniProt Q9NVM6), the “dose-dependent thermal stabilisation call” value was inactive: 0.
In the case of DOK2 (UniProt O60496), the “dose-dependent thermal stabilisation call” value was active: 1.
As to DCK (UniProt P27707), the “dose-dependent thermal stabilisation call” value was active: 1.
Then DCTN1 (UniProt Q14203), with inactive: 0.
Consider EEF1AKMT2 (UniProt Q5JPI9), for which the “dose-dependent thermal stabilisation call” value was inactive: 0.
To DLGAP5 (UniProt Q15398) belongs inactive: 0; to EDC3 (UniProt Q96F86), inactive: 0; to DHX38 (UniProt Q92620), active: 1.
With DCUN1D1 (UniProt Q96GG9), the “dose-dependent thermal stabilisation call” value was inactive: 0.
Turning to EEF1D (UniProt P29692), the “dose-dependent thermal stabilisation call” value was inactive: 0.
Turning to CUL3 (UniProt Q13618), the “dose-dependent thermal stabilisation call” value was inactive: 0.
For the target DSCC1 (UniProt Q9BVC3), the “dose-dependent thermal stabilisation call” value was active: 1.
Turning to DYNC1LI2 (UniProt O43237), the “dose-dependent thermal stabilisation call” value was active: 1.
CTBS (UniProt Q01459): the “dose-dependent thermal stabilisation call” value was inactive: 0.
Consider DDX17 (UniProt Q92841), for which the “dose-dependent thermal stabilisation call” value was active: 1.
For the target DDT (UniProt P30046), the “dose-dependent thermal stabilisation call” value was inactive: 0.
For the target DIS3 (UniProt Q9Y2L1), the “dose-dependent thermal stabilisation call” value was inactive: 0.
Take CRIP2 (UniProt P52943): the “dose-dependent thermal stabilisation call” value was inactive: 0.
As for DIABLO (UniProt Q9NR28), the “dose-dependent thermal stabilisation call” value was inactive: 0.
As to CRBN (UniProt Q96SW2), the “dose-dependent thermal stabilisation call” value is inactive: 0.
As to DRG2 (UniProt P55039), the “dose-dependent thermal stabilisation call” value was active: 1.
For CYLD (UniProt Q9NQC7), the “dose-dependent thermal stabilisation call” value is inactive: 0.
Take CRNKL1 (UniProt Q9BZJ0): the “dose-dependent thermal stabilisation call” value was inactive: 0.
In the case of DHX16 (UniProt O60231), the “dose-dependent thermal stabilisation call” value was active: 1.
Turning to DCAF10 (UniProt Q5QP82), the “dose-dependent thermal stabilisation call” value was inactive: 0.
For the target DDX19A (UniProt Q9NUU7), the “dose-dependent thermal stabilisation call” value was inactive: 0.
For DHX15 (UniProt O43143), the “dose-dependent thermal stabilisation call” value was active: 1.
For the target CRK (UniProt P46108), the “dose-dependent thermal stabilisation call” value was inactive: 0.
As to DEK (UniProt P35659), the “dose-dependent thermal stabilisation call” value is inactive: 0.
CXorf56 (UniProt Q9H5V9): the “dose-dependent thermal stabilisation call” value is inactive: 0.
For E2F3 (UniProt O00716), the “dose-dependent thermal stabilisation call” value was inactive: 0.
As to EEF1B2 (UniProt P24534), the “dose-dependent thermal stabilisation call” value was inactive: 0.
To CTSB (UniProt P07858) belongs inactive: 0; to DSCR3 (UniProt O14972), active: 1.
